Experimental findings from PubChem BioAssay AID292 (DTP/NCI, 2004) are described below.

The assay concerns B6C3F1 mice, ip Sarcoma M5076, median survival T/C. The experiment in a line: NCI In Vivo Anticancer Drug Screen. Data for tumor model Sarcoma M5076 (intraperitoneal) in B6C3F1 mice. As to conditions: T/C endpoint: median survival time, higher T/C = longer survival. A digest of the protocol:
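The readout is a ratio of survival in drug-treated animals to survival in animals given vehicle alone, taken in mice bearing a transplanted tumour line.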

The mark [1] stands for this setting: dose: 1.0 mg/kg/injection, schedule: Q04DX004 (ip), vehicle: Klucel (hydroxypropylcellulose) (HPC).
The mark [2] stands for this setting: dose: 800.0 mg/kg/injection, schedule: Q04DX004 (ip), vehicle: Klucel (hydroxypropylcellulose) (HPC).
[3] abbreviates: dose: 200.0 mg/kg/injection, schedule: Q04DX004 (ip), vehicle: distilled water + alcohol.
The mark [4] stands for this setting: dose: 400.0 mg/kg/injection, schedule: Q04DX004 (ip), vehicle: distilled water + alcohol.

Each structure is given as a SMILES string. The list shows only some results of the screen, not a fair sample: it is rich in T/C values a quarter to a half above the control, in often repeated tests (any T/C) and in doses without a T/C. Other doses and runs of a compound stand elsewhere. T/C gives the treated animals as a percentage of the vehicle group. Some entries give survivors of the animals treated and no T/C: the source holds a T/C of zero for them, seemingly a mark for toxic or unscored doses. Some doses without a T/C left all or most animals alive at the check, yet need not have been tolerated: the source hardly ever lists a survival T/C far under the control, and the zero likely stands for such cases as well. Survivors were counted at the toxicity check, usually on the fifth day, unless a day is given; later deaths do not show. Schedule codes are those of the source, read here as Q, the interval in days (D) or hours (H), X, the number of doses. Some entries were tested several times; the values are given in rising order. Where survival is the endpoint, this PubChem deposit counts one and a half times the control or more as active, and values a quarter to a half above the control carry no call in these data; other NCI protocols may use other cut-offs. Signs of the kind (2×) say how often a value occurs here. Some T/C values are followed by the survivors on the day toxicity was checked, most often the fifth; without a count, all were alive then.

`CO[C@H](/C(C)=C/C=C/C(C)=C/c1coc(C)n1)[C@H](C)[C@H]1C[C@@H](O)[C@@]2(C)O[C@H]2/C=C/[C@@H](C)[C@@H]2C[C@@H](CC(=O)O2)C[C@H]2O[C@@H]2C(=O)O1`: the T/C reads like this: (dose: 0.06 mg/kg/injection, schedule: Q01DX013 (ip), vehicle: other) 139 % of control; (dose: 0.06 mg/kg/injection, schedule: Q03HX012 (ip), vehicle: other) 129 % of control; (dose: 0.09 mg/kg/injection, schedule: Q01DX013 (ip), vehicle: other) 143 % of control; (dose: 0.09 mg/kg/injection, schedule: Q03HX012 (ip), vehicle: other) 133 % of control; (dose: 0.13 mg/kg/injection, schedule: Q01DX013 (ip), vehicle: other) 134 % of control [9 of 10 alive on day 14]; (dose: 0.13 mg/kg/injection, schedule: Q03HX012 (ip), vehicle: other) 139 % of control. Besides, the T/C is, setting by setting: (dose: 0.13 mg/kg/injection, schedule: Q04DX004 (ip), vehicle: other) 125 % of control; (dose: 0.2 mg/kg/injection, schedule: Q03HX012 (ip), vehicle: other) 144 % of control; (dose: 0.2 mg/kg/injection, schedule: Q04DX004 (ip), vehicle: Klucel (hydroxypropylcellulose) (HPC)) 125 % of control (2×); (dose: 0.3 mg/kg/injection, schedule: Q03HX012 (ip), vehicle: other) 149 % of control; (dose: 0.3 mg/kg/injection, schedule: Q04DX004 (ip), vehicle: Klucel (hydroxypropylcellulose) (HPC)) 130 % of control; (dose: 0.3 mg/kg/injection, schedule: Q04DX004 (ip), vehicle: other) 130 and 133 % of control. Further, the T/C is 143 % of control (dose: 0.44 mg/kg/injection, schedule: Q03HX012 (ip), vehicle: other); 130 (2×) and 143 % of control (dose: 0.44 mg/kg/injection, schedule: Q04DX004 (ip), vehicle: Klucel (hydroxypropylcellulose) (HPC)); 129, 133, 140 % of control (dose: 0.44 mg/kg/injection, schedule: Q04DX004 (ip), vehicle: other); 127 % of control (dose: 0.45 mg/kg/injection, schedule: Q01DX005 (sc), vehicle: other); 147 % of control (dose: 0.5 mg/kg/injection, schedule: Q04DX004 (ip), vehicle: Klucel (hydroxypropylcellulose) (HPC)); 142 and 147 % of control (dose: 0.67 mg/kg/injection, schedule: Q04DX004 (ip), vehicle: Klucel (hydroxypropylcellulose) (HPC)). Also, the T/C is, setting by setting: (dose: 0.67 mg/kg/injection, schedule: Q04DX004 (ip), vehicle: other) 134, 139, 140 % of control; (dose: 0.67 mg/kg/injection, schedule: Q04DX004 (iv), vehicle: other) 127 % of control; under setting [1], 138, 150, 156 % of control; (dose: 1.0 mg/kg/injection, schedule: Q04DX004 (ip), vehicle: other) 132 and 139 % of control; (dose: 1.0 mg/kg/injection, schedule: Q04DX004 (iv), vehicle: other) 127 % of control [9 of 10 alive on day 14]; (dose: 1.5 mg/kg/injection, schedule: Q04DX004 (ip), vehicle: other) 137 % of control. For the same compound, the T/C (dose: 187.5 micrograms/kg/injection, schedule: Q03HX008 (sc), vehicle: other) is 127 % of control [9 of 10 alive on day 14]. Moreover, the survivor count is, setting by setting: (dose: 0.67 mg/kg/injection, schedule: Q01DX005 (sc), vehicle: other) 3 of 10 on day 14; (dose: 1.0 mg/kg/injection, schedule: Q01DX005 (sc), vehicle: other) 4 of 10 on day 14; under setting [1], 7 of 10 on day 14; (dose: 2.0 mg/kg/injection, schedule: Q04DX004 (ip), vehicle: Klucel (hydroxypropylcellulose) (HPC)) 2 of 10 on day 14.

Consider `COc1cc(C2c3cc4c(cc3[C@@H](OC3OC5CO[C@@H](C)OC5C(O)C3O)[C@H]3COC(=O)C23)OCO4)cc(OC)c1OC` (some centres not stated), for which the T/C reads like this: (dose: 100.0 mg/kg/injection, schedule: Q04DX004 (ip), vehicle: Klucel (hydroxypropylcellulose) (HPC)) 133 % of control; (dose: 150.0 mg/kg/injection, schedule: Q04DX004 (ip), vehicle: suspension in saline) 134 % of control; (dose: 200.0 mg/kg/injection, schedule: Q04DX004 (ip), vehicle: saline) 129 % of control [9 of 10 alive on day 14]; (dose: 400.0 mg/kg/injection, schedule: Q04DX004 (ip), vehicle: saline) 133 % of control [9 of 10 alive on day 14]. For the same compound, the survivor count under setting [2] was 0 of 10 on day 14 and the survivor count (dose: 800.0 mg/kg/injection, schedule: Q04DX004 (ip), vehicle: suspension in saline) is recorded as 8 of 10 on day 4.

For the compound `CCOC(=O)c1cn(C)c2c1C(=O)C(C(=O)OCC)CC(=O)N2` (configuration not stated), the survivor count (dose: 500.0 mg/kg/injection, schedule: Q04DX004 (ip), vehicle: saline + Tween-80 + alcohol) is on record as 10 of 10 on day 14.

`COc1ccccc1C1C(C#N)C(=O)NC(=O)C1C#N` (configuration not stated): under setting [2], the survivor count is recorded as 2 of 10.

With `CC(=O)C1C(=O)C(=O)N(c2ccc(C)cc2C)C1=O` (configuration not stated), the survivor count is 5 of 10 on day 14 (dose: 200.0 mg/kg/injection, schedule: Q04DX004 (ip), vehicle: Klucel (hydroxypropylcellulose) (HPC)); 3 of 10 on day 14 (dose: 400.0 mg/kg/injection, schedule: Q04DX004 (ip), vehicle: Klucel (hydroxypropylcellulose) (HPC)); 0 of 10 on day 14 under setting [2].

Regarding `CN(C)[C@@H]1C(=O)C(C(N)=O)=C(O)[C@@]2(O)C(=O)C3=C(O)c4c(O)ccc(Cl)c4[C@@](C)(O)[C@H]3C[C@@H]12`, the survivor count by setting is: (dose: 200.0 mg/kg/injection, schedule: Q04DX004 (ip), vehicle: suspension in saline) 7 of 10 on day 14; (dose: 400.0 mg/kg/injection, schedule: Q04DX004 (ip), vehicle: suspension in saline) 2 of 10 on day 14.

For `CCCCCC[Se][Se]CCCCCC`, under “dose: 50.0 mg/kg/injection, schedule: Q04DX004 (ip), vehicle: Klucel (hydroxypropylcellulose) (HPC)”, the survivor count is listed as 3 of 10 on day 9.

Take `Cn1c2c(c3nc(N)nc(N)c3c1=O)CCc1ccccc1-2`: the survivor count is on record as 2 of 10 on day 14 under setting [3] and 0 of 10 on day 14 under setting [4].

On to `O=NNc1cccnc1`, for which the survivor count is recorded as 1 of 10 on day 14 (dose: 100.0 mg/kg/injection, schedule: Q04DX004 (ip), vehicle: water) and 0 of 10 on day 14 (dose: 200.0 mg/kg/injection, schedule: Q04DX004 (ip), vehicle: water).

Take `Cc1c(N)nc([C@H](CC(N)=O)NC[C@H](N)C(N)=O)nc1C(=O)N[C@H](C(=O)N[C@H](C)[C@@H](O)[C@H](C)C(=O)N[C@H](C(=O)NCCc1nc(-c2nc(C(=O)NCCC[S+](C)C)cs2)cs1)[C@@H](C)O)C(OC1OC(CO)C(O)C(O)C1OC1OC(CO)C(O)C(OC(N)=O)C1O)c1cnc[nH]1` (some centres not stated): for the setting “dose: 80.0 mg/kg/injection, schedule: Q04DX004 (ip), vehicle: saline”, the survivor count was 2 of 10 on day 14.

As to `S=C1CCCCN1`, the survivor count (dose: 12.5 mg/kg/injection, schedule: Q04DX004 (ip), vehicle: distilled water + alcohol) is reported as 5 of 10 on day 14; the survivor count (dose: 25.0 mg/kg/injection, schedule: Q04DX004 (ip), vehicle: distilled water + alcohol) was 10 of 10 on day 14; the survivor count under setting [3] is 0 of 10 on day 14 and 1 of 10 on day 14; the survivor count under setting [4] is listed as 0 of 10 on day 14.
